Data taken from article PMC3598994.
No constants are given. Whether binding was seen depends on the method and setting. In cells and extracts the contact can be indirect. For some assays here: A result given as binding can be weak or reduced; the word gives no strength. Sequences can lack the tags named with a protein.

Assays:
[1] = biological target: GST-ATPase domain of GRP78/BiP; assay: pull-down; 10 μg of GST-fused GRP78 domain incubated with 500 μg of lysate of HEK-293 cells transfected with HA-Bag5; western blot with anti-HA; only the target purified
[2] = biological target: GST-substrate binding domain of GRP78/BiP; assay: as above

binding [1]: binds
binding [2]: no binding
B1: HA-Bag5 (protein, UniProt Q9UL15 1-447)
chain: MDMGNQHPSISRLQEIQKEVKSVEQQVIGFSGLSDDKNYKKLERILTKQLFEIDSVDTEGKGDIQQARKRAAQETERLLKELEQNANHPHRIEIQNIFEEAQSLVREKIVPFYNGGNCVTDEFEEGIQDIILRLTHVKTGGKISLRKARYHTLTKICAVQEIIEDCMKKQPSLPLSEDAHPSVAKINFVMCEVNKARGVLIALLMGVNNNETCRHLSCVLSGLIADLDALDVCGRTEIRNYRREVVEDINKLLKYLDLEEEADTTKAFDLRQNHSILKIEKVLKRMREIKNELLQAQNPSELYLSSKTELQGLIGQLDEVSLEKNPCIREARRRAVIEVQTLITYIDLKEALEKRKLFACEEHPSHKAVWNVLGNLSEIQGEVLSFDGNRTDKNYIRLEELLTKQLLALDAVDPQGEEKCKAARKQAVRLAQNILSYLDLKSDEWEY
